For one molecule, binding results are on record in publication PMC12116889.

No constants are given. Whether binding was seen depends on the method and setting. In cells and extracts the contact can be indirect. Sequences can lack the tags named with a protein.

The assay concerns the target T1, Tom71-HA (S. cerevisiae) (UniProt P38825).
T1 sequence: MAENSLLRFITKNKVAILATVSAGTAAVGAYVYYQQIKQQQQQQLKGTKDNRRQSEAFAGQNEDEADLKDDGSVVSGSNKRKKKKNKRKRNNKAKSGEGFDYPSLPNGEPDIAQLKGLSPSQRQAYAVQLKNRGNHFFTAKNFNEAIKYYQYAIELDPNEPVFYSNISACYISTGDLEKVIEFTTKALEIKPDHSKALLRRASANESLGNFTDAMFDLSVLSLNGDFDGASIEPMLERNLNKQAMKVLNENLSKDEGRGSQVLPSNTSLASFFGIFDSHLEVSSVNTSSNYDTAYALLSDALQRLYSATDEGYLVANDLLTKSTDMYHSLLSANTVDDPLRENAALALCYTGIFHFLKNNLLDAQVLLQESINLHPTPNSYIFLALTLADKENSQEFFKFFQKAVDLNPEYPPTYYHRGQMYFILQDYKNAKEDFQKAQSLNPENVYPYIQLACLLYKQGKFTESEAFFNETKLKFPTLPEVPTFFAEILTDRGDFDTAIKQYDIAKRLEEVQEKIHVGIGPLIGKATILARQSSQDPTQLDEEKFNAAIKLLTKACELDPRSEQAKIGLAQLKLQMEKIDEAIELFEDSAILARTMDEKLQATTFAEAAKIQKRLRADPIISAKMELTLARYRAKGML
As to the kind of experiment: co-IP; tom70Δ yeast cells expressing Flag-Pex19 alone or with Tom71-HA; whole cell lysate solubilised with 1% Triton X-100, incubated with anti-HA magnetic beads 2 h at 4 °C; wash with TBS, 0.5% Triton X-100, 5 mM EDTA, 350 mM NaCl; immunoblot of input, unbound and eluate. (In western blotting, separated proteins are transferred to a membrane and probed.)

B1: Flag-Pex19 (protein, UniProt Q07418 1-342)
chain: MNENEYDNFDDLDDLLDEDPTKLDEAEPDDVQAKGSVYNDSENKEKNAESKDSDGVQVANESEEDPELKEMMVDLQNEFANLMKNNGNENNVKTEDFNKLISALEEAAKVPHQQMEQGCSSLKSNSTDKGTVNGSNPGFKNIVSNTLDRLKENGNKVDTSLAEETKESQRSGQNNNIDDILSQLLDQMVASGGKESAENQFDLKDGEMDDAITKILDQMTSKEVLYEPMKEMRSEFGVWFQENGENEEHKEKIGTYKRQFNIVDEIVNIYELKDYDELKHKDRVTELLDELEQLGDSPIRSANSPLKHGNEEEELMKMLEIDGNDPNLGNLDKELTDGCKQQ
Regarding B1, the binding result is listed as “no binding”.
